According to patent EP0620231B1, “Human parvovirus B19 epitope-related peptide” (Shin-Etsu Chemical Co., Ltd., priority 1993, dated 1996):
Not every detail of the peptide structures is certain; ends, links or a residue may be inferred.

Tested on: anti-HPV B19 antibodies
Experiment: Secondary screening: reactivity of free synthetic peptides with anti-HPV B19 antibodies
Assay type: binding
Conditions: symbols ⓞ, X printed without a legend
Excerpt: A secondary screening would be carried out to make clear the reactivity of a free peptide with the anti-HPV B19 antibodies. In this respect, the synthesis of such a free peptide should be performed while taking, into consideration, the degree of difficulty in synthesizing and purifying the corresponding amino acid sequence. Moreover, the number of amino acid residues in the free peptide should be determined after inquiring into possible structures of each amino acid sequence, i.e., the result of the secondary structure-determination using the computer program.
The foregoing primary screening was performed by preparing peptides each equally having 15 amino acid residues therein, but the secondary screening was carried out while preparing various peptides having variously changed amino acid residue numbers due to the reasons discussed above and the inventors have narrowed down to 6 amino acid sequences listed in the following Table 2.
Finally, 6 kinds of free peptides corresponding to the foregoing 6 amino acid sequences were synthesized and were inspected for the reactivity with the anti-HPV B19 antibodies. […]

| SMILES | Reactivity with Anti-HPV B19 Antibodies |
| --- | --- |
| CC(C)C[C@H](NC(=O)CNC(=O)[C@@H](NC(=O)[C@H](CC(C)C)NC(=O)[C@H](C)NC(=O)[C@H](CCCCN)NC(=O)CNC(=O)[C@H](C)NC(=O)CNC(=O)[C@@H](NC(=O)[C@H](CC(N)=O)NC(=O)[C@H](CO)NC(=O)[C@H](CO)NC(=O)[C@H](CC(=O)O)NC(=O)CNC(=O)[C@H](CCC(=O)O)NC(=O)[C@H](CCCCN)NC(=O)[C@@H](NC(=O)[C@@H](N)CO)[C@@H](C)O)[C@@H](C)O)[C@@H](C)O)C(=O)N[C@@H](CO)C(=O)N[C@H](C(=O)NCC(=O)O)[C@@H](C)O | ○ |
| CC[C@H](C)[C@H](NC(=O)CNC(=O)[C@@H](NC(=O)[C@@H](NC(=O)[C@H](Cc1ccc(O)cc1)NC(=O)[C@H](CCCCN)NC(=O)[C@H](CC(=O)O)NC(=O)[C@@H](NC(=O)[C@H](CC(=O)O)NC(=O)[C@@H](N)Cc1c[nH]c2ccccc12)[C@@H](C)O)C(C)C)[C@@H](C)O)C(=O)N[C@@H](CC(N)=O)C(=O)N[C@@H](C)C(=O)N[C@H](C(=O)N[C@@H](CO)C(=O)N[C@@H](Cc1c[nH]cn1)C(=O)NCC(=O)O)[C@@H](C)CC [WDTDKYVTGINAISHG] | ○ |
